# Measurements published in the supplement of paper PMC6411743.
# Amino acid sequences for entries named in this document (tags omitted). A change or cut given only in a name is not applied to a line headed by its entry.
# UniProt O75223: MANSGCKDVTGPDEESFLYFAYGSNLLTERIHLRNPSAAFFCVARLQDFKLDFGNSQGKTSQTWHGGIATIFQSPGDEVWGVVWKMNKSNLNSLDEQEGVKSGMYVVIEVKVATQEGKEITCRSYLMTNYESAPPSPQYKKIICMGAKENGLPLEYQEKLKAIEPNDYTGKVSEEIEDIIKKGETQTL
# UniProt O75146: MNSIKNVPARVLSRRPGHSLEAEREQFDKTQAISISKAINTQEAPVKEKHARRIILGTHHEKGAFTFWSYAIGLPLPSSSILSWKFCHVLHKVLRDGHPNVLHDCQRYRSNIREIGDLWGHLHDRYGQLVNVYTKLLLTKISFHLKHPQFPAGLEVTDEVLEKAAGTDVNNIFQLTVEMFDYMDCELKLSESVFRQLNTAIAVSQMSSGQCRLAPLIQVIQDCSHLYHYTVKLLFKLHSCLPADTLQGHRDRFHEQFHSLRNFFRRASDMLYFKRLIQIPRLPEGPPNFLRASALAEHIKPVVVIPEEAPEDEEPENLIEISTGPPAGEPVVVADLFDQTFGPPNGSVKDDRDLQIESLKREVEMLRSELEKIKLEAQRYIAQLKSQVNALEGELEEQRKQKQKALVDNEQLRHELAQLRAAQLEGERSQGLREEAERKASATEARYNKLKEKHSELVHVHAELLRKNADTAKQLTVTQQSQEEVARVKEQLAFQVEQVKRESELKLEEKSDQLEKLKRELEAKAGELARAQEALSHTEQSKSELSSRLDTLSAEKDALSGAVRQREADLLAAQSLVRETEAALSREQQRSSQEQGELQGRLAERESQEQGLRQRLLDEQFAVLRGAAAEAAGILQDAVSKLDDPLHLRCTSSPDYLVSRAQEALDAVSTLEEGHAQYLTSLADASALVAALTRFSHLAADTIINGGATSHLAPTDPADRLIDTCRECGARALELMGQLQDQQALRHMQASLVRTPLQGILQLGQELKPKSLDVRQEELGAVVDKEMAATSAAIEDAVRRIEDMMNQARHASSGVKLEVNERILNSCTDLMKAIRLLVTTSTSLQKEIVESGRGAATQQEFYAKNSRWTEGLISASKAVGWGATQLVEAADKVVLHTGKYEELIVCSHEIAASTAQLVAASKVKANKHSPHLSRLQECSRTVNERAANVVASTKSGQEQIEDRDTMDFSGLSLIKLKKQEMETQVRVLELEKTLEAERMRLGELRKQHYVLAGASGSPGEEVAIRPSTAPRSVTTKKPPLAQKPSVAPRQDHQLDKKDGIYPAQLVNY
# UniProt O95619, whole entry: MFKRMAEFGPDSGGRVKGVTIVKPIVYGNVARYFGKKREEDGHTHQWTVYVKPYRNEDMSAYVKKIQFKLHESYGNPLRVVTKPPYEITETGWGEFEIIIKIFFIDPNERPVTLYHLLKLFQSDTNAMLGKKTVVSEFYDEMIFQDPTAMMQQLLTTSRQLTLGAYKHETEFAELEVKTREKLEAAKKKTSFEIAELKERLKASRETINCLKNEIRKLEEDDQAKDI
# UniProt O95363: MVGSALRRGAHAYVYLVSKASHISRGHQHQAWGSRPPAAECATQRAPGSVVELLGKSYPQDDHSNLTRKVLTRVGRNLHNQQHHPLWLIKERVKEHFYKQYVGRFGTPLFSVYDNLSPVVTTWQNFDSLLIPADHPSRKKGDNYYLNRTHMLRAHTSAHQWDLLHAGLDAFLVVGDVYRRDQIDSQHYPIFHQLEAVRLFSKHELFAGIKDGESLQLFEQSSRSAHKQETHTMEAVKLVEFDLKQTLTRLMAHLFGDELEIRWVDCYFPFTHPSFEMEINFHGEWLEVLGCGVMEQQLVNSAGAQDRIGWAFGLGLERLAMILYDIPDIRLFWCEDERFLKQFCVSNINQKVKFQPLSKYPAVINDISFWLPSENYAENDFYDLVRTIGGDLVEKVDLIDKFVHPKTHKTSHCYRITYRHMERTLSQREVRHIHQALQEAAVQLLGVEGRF
# UniProt O75909: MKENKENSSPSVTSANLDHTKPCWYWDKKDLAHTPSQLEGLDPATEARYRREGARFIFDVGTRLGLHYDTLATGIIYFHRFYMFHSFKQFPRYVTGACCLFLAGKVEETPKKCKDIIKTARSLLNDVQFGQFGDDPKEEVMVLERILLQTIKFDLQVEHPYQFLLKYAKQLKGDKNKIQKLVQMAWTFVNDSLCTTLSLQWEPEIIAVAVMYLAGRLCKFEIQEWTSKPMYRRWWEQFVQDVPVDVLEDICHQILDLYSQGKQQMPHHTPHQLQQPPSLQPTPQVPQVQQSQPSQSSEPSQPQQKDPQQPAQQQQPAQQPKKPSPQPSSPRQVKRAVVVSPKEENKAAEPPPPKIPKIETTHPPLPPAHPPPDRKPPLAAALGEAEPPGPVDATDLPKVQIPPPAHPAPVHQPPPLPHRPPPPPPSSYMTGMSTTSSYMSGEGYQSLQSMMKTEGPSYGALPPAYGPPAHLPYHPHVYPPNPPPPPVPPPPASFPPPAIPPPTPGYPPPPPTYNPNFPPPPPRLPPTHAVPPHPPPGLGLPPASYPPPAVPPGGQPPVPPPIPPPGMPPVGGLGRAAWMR
# UniProt O75534: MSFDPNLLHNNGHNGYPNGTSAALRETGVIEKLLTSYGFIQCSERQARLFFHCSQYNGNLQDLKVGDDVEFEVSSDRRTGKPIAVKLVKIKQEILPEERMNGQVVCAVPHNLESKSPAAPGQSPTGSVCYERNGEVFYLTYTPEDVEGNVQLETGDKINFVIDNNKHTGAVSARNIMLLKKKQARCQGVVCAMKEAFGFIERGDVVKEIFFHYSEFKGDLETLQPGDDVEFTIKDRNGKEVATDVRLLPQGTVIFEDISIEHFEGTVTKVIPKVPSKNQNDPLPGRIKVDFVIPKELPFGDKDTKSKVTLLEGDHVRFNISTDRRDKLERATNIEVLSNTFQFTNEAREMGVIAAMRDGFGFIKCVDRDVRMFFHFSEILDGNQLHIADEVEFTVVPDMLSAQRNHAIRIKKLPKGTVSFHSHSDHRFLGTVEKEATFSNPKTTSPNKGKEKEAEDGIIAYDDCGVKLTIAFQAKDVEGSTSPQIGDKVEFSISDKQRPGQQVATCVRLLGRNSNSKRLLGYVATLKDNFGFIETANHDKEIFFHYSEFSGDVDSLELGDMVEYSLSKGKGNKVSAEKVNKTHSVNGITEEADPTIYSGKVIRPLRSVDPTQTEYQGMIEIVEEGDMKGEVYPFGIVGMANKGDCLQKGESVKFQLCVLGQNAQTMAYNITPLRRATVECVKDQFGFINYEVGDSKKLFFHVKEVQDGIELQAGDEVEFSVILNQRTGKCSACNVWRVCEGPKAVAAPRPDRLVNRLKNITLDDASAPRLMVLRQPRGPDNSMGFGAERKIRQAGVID
# UniProt O75083: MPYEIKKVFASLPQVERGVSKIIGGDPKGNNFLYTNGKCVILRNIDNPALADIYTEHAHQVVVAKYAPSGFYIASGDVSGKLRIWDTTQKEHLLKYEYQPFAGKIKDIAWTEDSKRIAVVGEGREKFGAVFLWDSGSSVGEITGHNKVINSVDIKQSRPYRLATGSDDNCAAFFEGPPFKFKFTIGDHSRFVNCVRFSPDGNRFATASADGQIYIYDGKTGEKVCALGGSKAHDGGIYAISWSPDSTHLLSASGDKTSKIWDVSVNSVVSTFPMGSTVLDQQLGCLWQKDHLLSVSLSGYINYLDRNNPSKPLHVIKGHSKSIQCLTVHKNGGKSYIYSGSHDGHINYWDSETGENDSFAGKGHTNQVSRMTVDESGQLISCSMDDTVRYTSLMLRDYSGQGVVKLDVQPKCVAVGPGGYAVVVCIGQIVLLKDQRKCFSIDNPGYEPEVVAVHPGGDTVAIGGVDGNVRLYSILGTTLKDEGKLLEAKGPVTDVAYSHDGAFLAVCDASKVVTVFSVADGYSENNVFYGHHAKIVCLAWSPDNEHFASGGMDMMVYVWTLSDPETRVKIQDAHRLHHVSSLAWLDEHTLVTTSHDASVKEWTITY
# UniProt O60678: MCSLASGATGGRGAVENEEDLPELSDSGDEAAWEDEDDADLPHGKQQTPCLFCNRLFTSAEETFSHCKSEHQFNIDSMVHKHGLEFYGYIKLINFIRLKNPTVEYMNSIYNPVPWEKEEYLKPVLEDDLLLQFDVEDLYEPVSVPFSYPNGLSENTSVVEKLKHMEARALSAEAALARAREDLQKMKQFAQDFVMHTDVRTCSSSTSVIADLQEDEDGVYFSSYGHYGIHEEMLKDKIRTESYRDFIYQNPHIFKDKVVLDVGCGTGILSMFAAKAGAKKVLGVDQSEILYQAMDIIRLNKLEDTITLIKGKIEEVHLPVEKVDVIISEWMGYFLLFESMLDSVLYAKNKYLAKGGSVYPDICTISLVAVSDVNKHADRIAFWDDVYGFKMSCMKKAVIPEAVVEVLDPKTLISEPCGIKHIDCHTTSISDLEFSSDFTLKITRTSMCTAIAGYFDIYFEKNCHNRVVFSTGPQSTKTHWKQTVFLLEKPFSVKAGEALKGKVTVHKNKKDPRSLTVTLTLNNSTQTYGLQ
# UniProt O94766: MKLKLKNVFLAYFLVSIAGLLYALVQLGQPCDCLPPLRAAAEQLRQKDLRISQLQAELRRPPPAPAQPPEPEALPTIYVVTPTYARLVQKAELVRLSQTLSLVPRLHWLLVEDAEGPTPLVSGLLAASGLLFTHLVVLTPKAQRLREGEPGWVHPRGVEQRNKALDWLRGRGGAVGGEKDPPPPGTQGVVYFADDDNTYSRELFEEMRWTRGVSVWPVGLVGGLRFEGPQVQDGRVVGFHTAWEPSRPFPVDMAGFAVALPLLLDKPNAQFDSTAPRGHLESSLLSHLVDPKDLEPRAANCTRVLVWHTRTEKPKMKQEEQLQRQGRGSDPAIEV
# UniProt O75037: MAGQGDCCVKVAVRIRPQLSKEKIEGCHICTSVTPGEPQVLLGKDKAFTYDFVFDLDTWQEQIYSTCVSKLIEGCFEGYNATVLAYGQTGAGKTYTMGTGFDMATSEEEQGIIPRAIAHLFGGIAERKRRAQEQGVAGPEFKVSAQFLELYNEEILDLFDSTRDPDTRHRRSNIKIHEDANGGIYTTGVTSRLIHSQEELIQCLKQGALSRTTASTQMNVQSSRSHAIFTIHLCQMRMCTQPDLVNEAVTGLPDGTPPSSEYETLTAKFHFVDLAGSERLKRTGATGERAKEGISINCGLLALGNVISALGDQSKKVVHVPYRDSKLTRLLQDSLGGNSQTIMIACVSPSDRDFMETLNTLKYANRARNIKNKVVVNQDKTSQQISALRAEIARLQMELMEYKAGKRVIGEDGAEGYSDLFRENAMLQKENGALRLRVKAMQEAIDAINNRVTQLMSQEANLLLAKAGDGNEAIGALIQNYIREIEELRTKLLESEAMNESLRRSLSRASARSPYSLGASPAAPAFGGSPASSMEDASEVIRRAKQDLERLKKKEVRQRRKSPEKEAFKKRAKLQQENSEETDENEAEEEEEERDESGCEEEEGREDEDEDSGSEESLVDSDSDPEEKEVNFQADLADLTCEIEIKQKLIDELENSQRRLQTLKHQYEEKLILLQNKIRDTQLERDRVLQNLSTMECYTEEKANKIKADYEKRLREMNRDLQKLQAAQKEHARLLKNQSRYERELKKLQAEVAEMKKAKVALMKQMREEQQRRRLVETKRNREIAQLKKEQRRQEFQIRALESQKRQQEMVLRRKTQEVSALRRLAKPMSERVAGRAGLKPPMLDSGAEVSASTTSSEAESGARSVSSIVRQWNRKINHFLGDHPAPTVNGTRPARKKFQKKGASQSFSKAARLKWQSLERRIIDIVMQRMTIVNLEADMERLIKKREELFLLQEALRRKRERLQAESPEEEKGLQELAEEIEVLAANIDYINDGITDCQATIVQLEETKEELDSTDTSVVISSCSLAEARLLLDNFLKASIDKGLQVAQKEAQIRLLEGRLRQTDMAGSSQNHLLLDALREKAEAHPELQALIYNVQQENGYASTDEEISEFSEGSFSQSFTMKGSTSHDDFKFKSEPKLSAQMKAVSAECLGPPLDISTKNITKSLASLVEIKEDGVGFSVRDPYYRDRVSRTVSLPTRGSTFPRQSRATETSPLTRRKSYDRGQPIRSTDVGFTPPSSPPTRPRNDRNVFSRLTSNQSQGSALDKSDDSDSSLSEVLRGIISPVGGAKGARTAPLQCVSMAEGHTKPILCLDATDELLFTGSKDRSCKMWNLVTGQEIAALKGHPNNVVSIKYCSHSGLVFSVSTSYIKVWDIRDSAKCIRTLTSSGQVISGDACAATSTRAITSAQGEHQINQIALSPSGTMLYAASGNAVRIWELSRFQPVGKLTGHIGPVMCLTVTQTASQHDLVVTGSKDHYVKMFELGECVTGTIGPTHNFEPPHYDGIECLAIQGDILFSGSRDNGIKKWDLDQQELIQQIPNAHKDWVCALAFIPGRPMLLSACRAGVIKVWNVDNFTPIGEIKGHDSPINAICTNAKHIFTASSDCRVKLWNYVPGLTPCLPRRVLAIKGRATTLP
# UniProt O75348, whole entry: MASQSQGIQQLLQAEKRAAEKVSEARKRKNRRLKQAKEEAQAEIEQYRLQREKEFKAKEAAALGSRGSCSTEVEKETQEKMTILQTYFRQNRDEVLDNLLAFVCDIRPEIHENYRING
# ± gives the standard deviation of the averaged measurements. The list shows a part of the results, in another mix than the full data.
# Compound: Nc1ncnc2c1ncn2[C@@H]1O[C@H](COP(=O)(O)OP(=O)(O)OP(=O)(O)O)[C@@H](O)[C@H]1O [adenosine triphosphate]
# Assay: NP40-soluble protein abundance relative to vehicle (solubility fold change) (ratio); higher = more soluble protein in presence of ATP
# Settings: concentration: 4mM
# Summary of the method: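 Jurkat crude lysate (Dounce-homogenised) was treated with eight concentrations from 0.1 to 10 mM for 10 min at room temperature, then 3 min at 37 °C. It was solubilised with 0.8% NP40 and benzonase (60 min, 4 °C) and ultracentrifuged, and the supernatant was TMT-labelled for LC-MS/MS. Intensities were vsn-normalised, and the value is the fold change against the NP40-processed vehicle per replicate, from three independent experiments.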
row,Target,NP40-soluble protein abundance
1,UniProt O75935 and related entries,0.931 ± 0.054
2,UniProt O75145 and related entries,0.9629 ± 0.0073
3,GGCT (UniProt O75223),0.9002 ± 0.0022
4,SNX3 (UniProt O60493),0.91 ± 0.044
5,CCNT1 (UniProt O60563),1.3 ± 0.018
6,UniProt O95297 and related entries,0.859 ± 0.043
7,UniProt O75190 and related entries,1.09 ± 0.057
8,UniProt O95248-4|G5E933 and related entries,1.03 ± 0.019
9,UniProt O94973 and related entries,1.07 ± 0.057
10,UniProt O75582 and related entries,1.04 ± 0.06
11,HIP1R (UniProt O75146),1.14 ± 0.029
12,YEATS4 (UniProt O95619),0.946 ± 0.061
13,UniProt O75554 and related entries,1.07 ± 0.068
14,FARS2 (UniProt O95363),1.01 ± 0.044
15,RNGTT (UniProt O60942),0.988 ± 0.035
16,CCNK (UniProt O75909),1.18 ± 0.068
17,MTRF1 (UniProt O75570),1.06 ± 0.059
18,UniProt O75534 and related entries,0.943 ± 0.016
19,UniProt O75323,0.964 ± 0.016

row,Target,NP40-soluble protein abundance
1,WDR1 (UniProt O75083),0.925 ± 0.05
2,UniProt O95475,1.13 ± 0.11
3,UniProt O60762 and related entries,1.1 ± 0.073
4,UniProt O94916 and related entries,0.989 ± 0.068
5,PRMT3 (UniProt O60678),0.996 ± 0.065
6,POLR1A (UniProt O95602),1.18 ± 0.028
7,UniProt O75486 and related entries,1.05 ± 0.15
8,WFS1 (UniProt O76024),1.06 ± 0.14
9,TOX (UniProt O94900),0.883 ± 0.052
10,PRKD3 (UniProt O94806),1.03 ± 0.17
11,B3GAT3 (UniProt O94766),0.924 ± 0.023
12,ATG7 (UniProt O95352),0.965 ± 0.035
13,UniProt O75037 and related entries,1.1 ± 0.037
14,UniProt O60888 and related entries,0.919 ± 0.02
15,UniProt O95273 and related entries,0.961 ± 0.038
16,ATP6V1G1 (UniProt O75348),0.886 ± 0.08
17,UniProt O95271 and related entries,1.07 ± 0.075
18,IPO13 (UniProt O94829),1.01 ± 0.17

# Same assay, conditions: concentration: 6mM
row,Target,NP40-soluble protein abundance
1,UniProt O75935 and related entries,0.871 ± 0.1
2,UniProt O75145 and related entries,1.01 ± 0.011
3,GGCT (UniProt O75223),0.92 ± 0.075
4,SNX3 (UniProt O60493),0.917 ± 0.039
5,CCNT1 (UniProt O60563),1.49 ± 0.039
6,UniProt O95297 and related entries,0.92 ± 0.062
7,UniProt O75190 and related entries,1.08 ± 0.062
8,UniProt O95248-4|G5E933 and related entries,1.03 ± 0.05
9,UniProt O94973 and related entries,1.04 ± 0.064
10,UniProt O75582 and related entries,1.04 ± 0.075
11,HIP1R (UniProt O75146),1.19 ± 0.043
12,YEATS4 (UniProt O95619),1.05 ± 0.11
13,UniProt O75554 and related entries,1.18 ± 0.024
14,FARS2 (UniProt O95363),0.965 ± 0.092
15,RNGTT (UniProt O60942),0.992 ± 0.053
16,CCNK (UniProt O75909),1.14 ± 0.14
17,MTRF1 (UniProt O75570),1.07 ± 0.056
18,UniProt O75534 and related entries,0.958 ± 0.058
19,UniProt O75323,0.976 ± 0.047

row,Target,NP40-soluble protein abundance
1,WDR1 (UniProt O75083),0.923 ± 0.088
2,UniProt O95475,1.09 ± 0.068
3,UniProt O60762 and related entries,0.953 ± 0.066
4,UniProt O94916 and related entries,0.996 ± 0.042
5,PRMT3 (UniProt O60678),0.937 ± 0.089
6,POLR1A (UniProt O95602),1.17 ± 0.022
7,UniProt O75486 and related entries,1.25 ± 0.25
8,WFS1 (UniProt O76024),1.03 ± 0.057
9,TOX (UniProt O94900),0.945 ± 0.082
10,PRKD3 (UniProt O94806),0.977 ± 0.092
11,B3GAT3 (UniProt O94766),0.99 ± 0.026
12,ATG7 (UniProt O95352),0.928 ± 0.036
13,UniProt O75037 and related entries,1.14 ± 0.058
14,UniProt O60888 and related entries,0.98 ± 0.1
15,UniProt O95273 and related entries,0.909 ± 0.03
16,ATP6V1G1 (UniProt O75348),0.983 ± 0.15
17,UniProt O95271 and related entries,1.13 ± 0.049
18,IPO13 (UniProt O94829),1.03 ± 0.19

# Same assay, conditions: concentration: 8mM
row,Target,NP40-soluble protein abundance
1,UniProt O75935 and related entries,0.941 ± 0.071
2,UniProt O75145 and related entries,0.91 ± 0.011
3,GGCT (UniProt O75223),0.865 ± 0.017
4,SNX3 (UniProt O60493),0.935 ± 0.026
5,CCNT1 (UniProt O60563),1.54 ± 0.04
6,UniProt O95297 and related entries,0.834 ± 0.032
7,UniProt O75190 and related entries,1.18 ± 0.1
8,UniProt O95248-4|G5E933 and related entries,1.09 ± 0.036
9,UniProt O94973 and related entries,1.04 ± 0.039
10,UniProt O75582 and related entries,1.05 ± 0.054
11,HIP1R (UniProt O75146),1.17 ± 0.037
12,YEATS4 (UniProt O95619),1.01 ± 0.048
13,UniProt O75554 and related entries,1.08 ± 0.034
14,FARS2 (UniProt O95363),0.993 ± 0.052
15,RNGTT (UniProt O60942),0.965 ± 0.038
16,CCNK (UniProt O75909),1.15 ± 0.04
17,MTRF1 (UniProt O75570),1.02 ± 0.032
18,UniProt O75534 and related entries,0.973 ± 0.026
19,UniProt O75323,1.01 ± 0.044

row,Target,NP40-soluble protein abundance
1,WDR1 (UniProt O75083),0.942 ± 0.052
2,UniProt O95475,1.09 ± 0.076
3,UniProt O60762 and related entries,1.14 ± 0.05
4,UniProt O94916 and related entries,0.941 ± 0.054
5,PRMT3 (UniProt O60678),1.03 ± 0.011
6,POLR1A (UniProt O95602),1.25 ± 0.014
7,UniProt O75486 and related entries,1.23 ± 0.13
8,WFS1 (UniProt O76024),1.07 ± 0.15
9,TOX (UniProt O94900),0.824 ± 0.071
10,PRKD3 (UniProt O94806),0.927 ± 0.00093
11,B3GAT3 (UniProt O94766),0.932 ± 0.015
12,ATG7 (UniProt O95352),0.972 ± 0.037
13,UniProt O75037 and related entries,1.09 ± 0.025
14,UniProt O60888 and related entries,0.914 ± 0.063
15,UniProt O95273 and related entries,0.96 ± 0.14
16,ATP6V1G1 (UniProt O75348),0.861 ± 0.04
17,UniProt O95271 and related entries,1.09 ± 0.12
18,IPO13 (UniProt O94829),0.957 ± 0.12
